According to PMC12431657, “Discovery and mechanistic insights of dibenzoylmethane as a broad spectrum inhibitor of coronavirus” (PLOS Pathogens, 2025):
Structures can show the parent of a compound that is named as a salt. Where two headings read alike, the source gives them in different places. In all, about 3,300 compounds went through this assay and about 95 (3%) showed an effect of 50% or more. The list shows a part of the results.

System: HCoV-229E
Set-up: species or system Huh-7; HTS, protection from HCoV-229E induced cell death, luminescent cell viability (CellCounting-Lite 2.0), inhibition rate
Conditions: 24 h post infection, 1 h compound pre-incubation, 10 µM, inhibitor

SMILES | 229E Inhibition rate (229E Inhibition rate, 24 h) [%] | 229E Inhibition rate [%]
O=C(O)/C=C/c1ccc2c(c1)OCO2 [3,4-Methylenedioxycinnamic acid] | 15.4 | –
COc1ccc(-c2cc(=O)c3c(O)c(OC)c(O)cc3o2)cc1OC [Eupatilin] | – | 16.9
COc1cc(C[C@@H](CO[C@@H]2O[C@H](CO)[C@@H](O)[C@H](O)[C@H]2O)[C@H](CO[C@@H]2O[C@H](CO)[C@@H](O)[C@H](O)[C@H]2O)Cc2ccc(O)c(OC)c2)ccc1O [(R,R)-Secoisolariciresinol diglucoside] | 12.4 | –
O=C(/C=C/c1ccc(O)c(O)c1)O[C@H](Cc1ccc(O)c(O)c1)C(=O)O [Rosmarinic acid] | – | 19.1
CC(=O)O[C@H]1[C@H](O[C@H]2CC[C@]34C[C@]35CC[C@]3(C)[C@@H]([C@@]6(C)CC[C@@H](C(C)(C)O)O6)[C@@H](O)C[C@@]3(C)[C@@H]5C[C@H](O[C@@H]3O[C@H](CO)[C@@H](O)[C@H](O)[C@H]3O)[C@H]4C2(C)C)OC[C@@H](OC(C)=O)[C@@H]1O [Isoastragaloside I] | – | 11.2
Cc1cncc(C)n1 [2,6-Dimethylpyrazine] | – | 8.2
C[C@H]1CC[C@@]2(OC1)O[C@H]1C[C@H]3[C@@H]4CC[C@@H]5C[C@@H](O)CC[C@]5(C)[C@H]4CC[C@]3(C)[C@H]1[C@@H]2C [Sarsasapogenin] | – | 4.4
COC(=O)C1=CO[C@@H](O[C@@H]2O[C@H](CO)[C@@H](O)[C@H](O)[C@H]2O)[C@H]2[C@@H]1C=C[C@@]2(O)CO [Gardenoside] | – | 10.6
C/C=C1\C(=O)C[C@H]2[C@@H]3CCC4=CC(=O)CC[C@]4(C)[C@H]3CC[C@]12C [(Z)-Guggulsterone] | 6.7 | –
OC/C=C/c1ccccc1 [Cinnamyl Alcohol] | – | 46.6
O=C(O)[C@H](O)[C@H](O)[C@@H](O)[C@H](O)[C@H](O)CO [NSC 42196] | – | 14.9
CC(C)=CC[C@H](OC(=O)C=C(C)C)C1=CC(=O)c2c(O)ccc(O)c2C1=O [β,β-Dimethylacrylalkannin] | – | 17.4
COc1cc2c(cc1OC)[C@@H](Cc1ccc(O)c(Oc3cc4c(cc3OC)CCN(C)[C@@H]4Cc3ccc(O)cc3)c1)N(C)CC2 [Liensinine (Diperchlorate)] | 57.2 | –
C/C=C(/C)C(=O)O[C@H]1C(C)=C[C@]23C(=O)[C@@H](C=C(CO)[C@@H](O)[C@]12O)[C@H]1[C@@H](C[C@H]3C)C1(C)C [Ingenol Mebutate] | – | 3.8
C[C@@]12C[C@@]3(O)O[C@@H](O1)[C@]1(COC(=O)c4ccc(O)cc4)[C@H]3C[C@@]12O[C@@H]1O[C@H](CO)[C@@H](O)[C@H](O)[C@H]1O [Oxypaeoniflorin] | – | 40.9
C[C@H](CC[C@@H](O)C(C)(C)O)[C@H]1CC[C@@]2(C)[C@@H]3CC=C4[C@@H](CC[C@H](O)C4(C)C)[C@]3(C)[C@H](O)C[C@]12C [Mogrol] | – | 3.6
C[C@H](CC[C@@H](O[C@@H]1O[C@H](CO)[C@@H](O)[C@H](O)[C@H]1O[C@@H]1O[C@H](CO)[C@@H](O)[C@H](O)[C@H]1O)C(C)(C)O)[C@H]1CC[C@@]2(C)[C@@H]3CC=C4[C@@H](CC[C@H](O)C4(C)C)[C@]3(C)[C@H](O)C[C@]12C [Mogroside II-A] | – | 10
N[C@@H](Cc1c[nH]cn1)C(=O)O [L-Histidine] | 10 | –
CC(C)[C@H](C)[C@@H](O)[C@H](O)[C@@H](C)[C@H]1CC[C@H]2[C@@H]3COC(=O)[C@H]4C[C@H](O)[C@H](O)C[C@]4(C)[C@H]3CC[C@]12C [Brassinolide] | – | 13.9

SMILES | 229E Inhibition rate (229E Inhibition rate, 24 h) [%] | 229E Inhibition rate [%]
COc1ccc(-c2cc(=O)c3c(O)c(OC)c(OC)cc3o2)cc1 [Salvigenin] | – | 21.5
CC1(C)[C@@H](O[C@H]2O[C@H](C(=O)O)[C@@H](O)[C@H](O)[C@H]2O[C@@H]2O[C@H](C(=O)O)[C@@H](O)[C@H](O)[C@H]2O)CC[C@]2(C)[C@H]3C(=O)C=C4[C@@H]5C[C@@](C)(C(=O)O)CC[C@]5(C)CC[C@@]4(C)[C@]3(C)CC[C@@H]12 [Ammonium glycyrrhizinate] | 1.4 | –
COc1cc2c(cc1OC)C1=Cc3ccc(OC)c(OC)c3CN1CC2 [Dihydropalmatine] | – | 8.1
O=C(O)CO [Glycolic acid] | – | 18.6
O=c1c(O[C@@H]2O[C@H](CO)[C@@H](O)[C@H](O)[C@H]2O)c(-c2ccc(O)c(O)c2)oc2cc(O)cc(O)c12 [Isoquercetin] | 7.5 | –
COc1ccc(C(C)=O)c(O)c1O [2,3-Dihydroxy-4-methoxyacetophenone] | – | 5.9
CCC1=C[C@@H]2CN3CCc4c([nH]c5ccccc45)[C@@](C(=O)OC)(C2)[C@@H]13 [Catharanthine] | – | 54.2
O[C@H]1[C@H](O)[C@@H](O)CN2CC[C@H](O)[C@H]12 [Castanospermine] | – | 47.4
OC[C@@H](O)[C@@H](O[C@H]1O[C@H](CO)[C@@H](O)[C@H](O)[C@H]1O)[C@H](O)[C@@H](O)CO [Maltitol] | – | 12
C=C1C[C@@]23CC[C@H]4[C@@](C)(CCC[C@@]4(C)C(=O)O[C@@H]4O[C@H](CO)[C@@H](O)[C@H](O)[C@H]4O)[C@@H]2CC[C@]1(O[C@@H]1O[C@H](C)[C@@H](O)[C@H](O)[C@@H]1O[C@@H]1O[C@H](CO)[C@@H](O)[C@H](O[C@@H]2O[C@H](CO)[C@@H](O)[C@H](O)[C@H]2O)[C@H]1O)C3 [Rebaudioside C] | – | 10.5
NC[C@H](O)c1ccc(O)c(O)c1 [Norepinephrine (hydrochloride)] | – | 7.6
COc1cc2c(cc1OC)[C@@H](Cc1ccc(O)c(Oc3cc4c(cc3OC)CCN(C)[C@@H]4Cc3ccc(O)cc3)c1)N(C)CC2 [Liensinine (perchlorate)] | 8.8 | –
CC(C)=CCC[C@H](C)CC=O [(S)-(-)-Citronellal] | – | 6.7
CC(=O)O[C@@]12CO[C@@H]1C[C@H](O)[C@@]1(C)C(=O)[C@H](O)C3=C(C)[C@@H](OC(=O)[C@H](O)[C@@H](NC(=O)c4ccccc4)c4ccccc4)C[C@@](O)([C@@H](OC(=O)c4ccccc4)[C@H]21)C3(C)C [10-Deacetyltaxol] | – | 10.8
C[C@@H]1O[C@@H](Oc2cc(O)c3c(=O)c(O)c(-c4ccc(O)cc4)oc3c2O)[C@H](O)[C@H](O)[C@H]1O [Rhodionin] | – | 0
Cc1ccc(O)c(O)c1 [4-Methylcatechol] | – | 16.8
C=C[C@](C)(O)CC[C@H]1C(=C)CC[C@H]2C(C)(C)CCC[C@]12C [Manool] | – | 42.5
O=C(O)C(O)C(O)C(=O)O (stereo not drawn) [Choline (bitartrate)] | 7.4 | –
Nc1ccccc1S(=O)(=O)O [2-Aminobenzenesulfonic acid] | – | 0

Given in markdown: entries from further up

| SMILES | 229E Inhibition rate (229E Inhibition rate, 24 h) [%] | 229E Inhibition rate [%] |
| --- | --- | --- |
| CC1(C)[C@@H](O[C@H]2O[C@H](C(=O)O)[C@@H](O)[C@H](O)[C@H]2O[C@@H]2O[C@H](C(=O)O)[C@@H](O)[C@H](O)[C@H]2O)CC[C@]2(C)[C@H]3C(=O)C=C4[C@@H]5C[C@@](C)(C(=O)O)CC[C@]5(C)CC[C@@]4(C)[C@]3(C)CC[C@@H]12 [Ammonium glycyrrhizinate] | 1.4 | – |
| COc1cc2c(cc1OC)C1=Cc3ccc(OC)c(OC)c3CN1CC2 [Dihydropalmatine] | – | 8.1 |
| O=C(O)CO [Glycolic acid] | – | 18.6 |
| O=c1c(O[C@@H]2O[C@H](CO)[C@@H](O)[C@H](O)[C@H]2O)c(-c2ccc(O)c(O)c2)oc2cc(O)cc(O)c12 [Isoquercetin] | 7.5 | – |
| COc1ccc(C(C)=O)c(O)c1O [2,3-Dihydroxy-4-methoxyacetophenone] | – | 5.9 |
| CCC1=C[C@@H]2CN3CCc4c([nH]c5ccccc45)[C@@](C(=O)OC)(C2)[C@@H]13 [Catharanthine] | – | 54.2 |
| O[C@H]1[C@H](O)[C@@H](O)CN2CC[C@H](O)[C@H]12 [Castanospermine] | – | 47.4 |
| OC[C@@H](O)[C@@H](O[C@H]1O[C@H](CO)[C@@H](O)[C@H](O)[C@H]1O)[C@H](O)[C@@H](O)CO [Maltitol] | – | 12 |
| C=C1C[C@@]23CC[C@H]4[C@@](C)(CCC[C@@]4(C)C(=O)O[C@@H]4O[C@H](CO)[C@@H](O)[C@H](O)[C@H]4O)[C@@H]2CC[C@]1(O[C@@H]1O[C@H](C)[C@@H](O)[C@H](O)[C@@H]1O[C@@H]1O[C@H](CO)[C@@H](O)[C@H](O[C@@H]2O[C@H](CO)[C@@H](O)[C@H](O)[C@H]2O)[C@H]1O)C3 [Rebaudioside C] | – | 10.5 |
| NC[C@H](O)c1ccc(O)c(O)c1 [Norepinephrine (hydrochloride)] | – | 7.6 |
| COc1cc2c(cc1OC)[C@@H](Cc1ccc(O)c(Oc3cc4c(cc3OC)CCN(C)[C@@H]4Cc3ccc(O)cc3)c1)N(C)CC2 [Liensinine (perchlorate)] | 8.8 | – |
| CC(C)=CCC[C@H](C)CC=O [(S)-(-)-Citronellal] | – | 6.7 |
| CC(=O)O[C@@]12CO[C@@H]1C[C@H](O)[C@@]1(C)C(=O)[C@H](O)C3=C(C)[C@@H](OC(=O)[C@H](O)[C@@H](NC(=O)c4ccccc4)c4ccccc4)C[C@@](O)([C@@H](OC(=O)c4ccccc4)[C@H]21)C3(C)C [10-Deacetyltaxol] | – | 10.8 |
| C[C@@H]1O[C@@H](Oc2cc(O)c3c(=O)c(O)c(-c4ccc(O)cc4)oc3c2O)[C@H](O)[C@H](O)[C@H]1O [Rhodionin] | – | 0 |

Carrying on:

SMILES | 229E Inhibition rate (229E Inhibition rate, 24 h) [%] | 229E Inhibition rate [%]
COc1cc2ccc(=O)oc2c(O)c1O [Fraxetin] | – | 11.5
CC(=O)O[C@@]1(C)C[C@@H](O)[C@]2(O)C=CO[C@@H](O[C@@H]3O[C@H](CO)[C@@H](O)[C@H](O)[C@H]3O)[C@@H]21 [8-O-Acetylharpagide] | – | 0
O=C1c2ccccc2C(=O)c2c(O)c(O)cc(O)c21 [Purpurin] | – | 25.5
CCCOC(=O)c1ccc(O)cc1 [Propylparaben] | – | 42.3
Oc1cc(O)c2cc(O)c(-c3ccc(O)c(O)c3)[o+]c2c1 [Cyanidin (Chloride)] | – | 16.9
CCC1(c2ccc(O)cc2)NC(=O)N(C)C1=O (stereo not drawn) [4-Hydroxymephenytoin] | – | 55.5
O=C(/C=C/c1ccc(O)c(O)c1)O[C@@H]1C[C@@](O)(C(=O)O)C[C@@H](O)[C@@H]1O [Neochlorogenic acid] | – | 24.2
CC(C)=CCc1cc([C@@H]2CC(=O)c3ccc(O)c(CC=C(C)C)c3O2)ccc1O [Glabrol] | – | 0
CNC(=O)c1cccnc1 [N-Methylnicotinamide] | – | 28.4
CC(C)=CCC[C@@](C)(O)[C@H]1CC[C@]2(C)[C@@H]1[C@H](O)C[C@@H]1[C@@]3(C)CC[C@H](O)C(C)(C)[C@@H]3[C@@H](O[C@@H]3O[C@H](CO)[C@@H](O)[C@H](O)[C@H]3O[C@@H]3O[C@@H](C)[C@H](O)[C@@H](O)[C@H]3O)C[C@]12C [20(R)-Ginsenoside Rg2] | – | 5.2
CC12CCC(C1)C(C)(C)C2O (stereo not drawn) [Fenchyl alcohol] | – | 8.3
O=C(O)C(O)c1cccc(O)c1 (stereo not drawn) [3-Hydroxymandelic Acid] | – | 9
COc1ccc(C(=O)/C=C/c2ccc(O)cc2)c(O)c1CC=C(C)C [4-Hydroxyderricin] | – | 3
CC(C)=CCC/C(C)=C/Cc1cc(-c2coc3cc(O)ccc3c2=O)ccc1O [Corylifol A] | – | 2
CC(CC(=O)O)C(=O)O (stereo not drawn) [2-Methylsuccinic acid] | – | 4.4
CCCCCCCCCCCCCC(=O)OC[C@@H](O)COP(=O)([O-])OCC[N+](C)(C)C [LysoPC(14:0/0:0)] | – | 20.5
C/C=C/C(=O)O [NSC 8751] | – | 14.2
COc1ccc(/C=C/c2cc(O)cc(O[C@@H]3O[C@H](CO)[C@@H](O)[C@H](O)[C@H]3O)c2)cc1 [Desoxyrhaponticin] | – | 0
NC(Cn1ccc(=O)c(O)c1)C(=O)O (stereo not drawn) [Mimosine] | – | 7.7
